Assay results published in PubChem BioAssay AID588590 (National Center for Advancing Translational Sciences (NCATS), 2011).
The whole screen tested about 390,000 compounds, of which about 4,000 (1%) were called active. The inconclusive results got no clear call from the source; some entries with a clear call stand among them for comparison. The call rests on the fitted dose curve; in most records, active means well fitted inhibition curve with a large enough effect; inconclusive means small, poorly fitted or top-dose-only effect, or another doubt; inactive means no such curve, though single readings can be large or run the other way. A potency beside an inconclusive call is a rough fit, not a confirmed value.

Chains of the proteins cited; added tags and fusions are not shown. Lines headed by an entry give the natural chain unless they say otherwise; changes in a name come on top.
UniProt Q9UNA4: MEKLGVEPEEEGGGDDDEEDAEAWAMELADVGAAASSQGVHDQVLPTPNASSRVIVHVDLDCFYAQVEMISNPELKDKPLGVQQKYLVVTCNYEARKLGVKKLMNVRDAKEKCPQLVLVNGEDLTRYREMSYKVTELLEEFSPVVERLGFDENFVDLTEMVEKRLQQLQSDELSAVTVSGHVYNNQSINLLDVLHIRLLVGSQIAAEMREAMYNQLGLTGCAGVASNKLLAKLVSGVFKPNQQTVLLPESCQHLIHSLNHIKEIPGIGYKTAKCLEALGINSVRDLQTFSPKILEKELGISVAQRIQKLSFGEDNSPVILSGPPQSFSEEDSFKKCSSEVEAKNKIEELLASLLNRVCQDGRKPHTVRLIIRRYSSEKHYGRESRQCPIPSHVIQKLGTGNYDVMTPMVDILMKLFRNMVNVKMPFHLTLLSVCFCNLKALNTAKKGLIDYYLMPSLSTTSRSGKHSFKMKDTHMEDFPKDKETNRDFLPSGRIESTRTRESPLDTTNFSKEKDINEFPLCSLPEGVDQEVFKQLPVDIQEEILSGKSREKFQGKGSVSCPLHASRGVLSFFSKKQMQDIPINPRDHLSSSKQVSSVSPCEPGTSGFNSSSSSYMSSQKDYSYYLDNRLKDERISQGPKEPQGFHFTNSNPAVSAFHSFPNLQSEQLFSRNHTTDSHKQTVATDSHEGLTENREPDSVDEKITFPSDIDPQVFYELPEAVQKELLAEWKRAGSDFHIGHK

These compounds were tested against DNA polymerase iota (Homo sapiens) (UniProt Q9UNA4) (assay: qHTS for Inhibitors of Polymerase Iota). Conditions: Pol iota fluorescent replication assay, 10 min; series mostly up to 115 µM; activity, negative = inhibition: at the top concentration.
How it was run: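 Fluorescent replication assay read twice, at 0 min and 10 min after adding 50 nM (final) substrate. Enzyme (10 nM) and compounds were first incubated 15 min at room temperature; enzyme-free buffer wells were negative controls.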
Potency means the concentration at half of the fitted maximal effect.

SMILES	Potency	activity, negative = inhibition
COCCSc1nnc(NC(=O)C2CC(=O)N(c3ccc(Cl)cc3)C2)s1 (stereo not given)	inconclusive: 25.1 µM [inhibitor, single point]	
O=C(O)c1cccc(N/N=C/c2cn(-c3ccccc3)nc2-c2cccs2)c1		inactive: 61%
CCCCNC(=O)c1ccccc1NC(=O)CN(c1ccccc1)S(=O)(=O)N(C)C	inconclusive: 89.1 µM [inhibitor, single point]	
CCOC(=O)N1C2C=C(C)[C@@H]2[C@@H]2CC(=O)N21 (stereo not given in full)		inactive: 30.4%
O=C(c1cc([N+](=O)[O-])ccc1Cl)N1CCN(Cc2ccccc2)CC1		inactive: -2.46%
COc1ccc(S(=O)(=O)N(CC(=O)O)c2ccccn2)cc1		inactive: 45.2%
CC(=O)c1ccc(OCCn2c(SCC(=O)O)nc3ccccc32)cc1	inconclusive: 2.24 µM [inhibitor, partial curve, poor fit]	
CCOC(=O)CN(C(=O)c1snc(C(N)=O)c1N)C(C(=O)NC1CCCCC1)c1ccc(F)cc1 (stereo not given)	inconclusive: 28.2 µM [inhibitor, full curve, poor fit]	
O=C(NCc1ccc(F)cc1)C1CC(=O)N(C2CCCCCCC2)C1 (stereo not given)	inconclusive: 89.1 µM [inhibitor, single point]	
CC(=O)Oc1ccccc1C(=O)Nc1ccccc1	inconclusive: 39.8 µM [inhibitor, single point]	
ClC1(CNc2ccccc2)CCN(Cc2ccccc2)CC1	inconclusive: 0.631 µM [inhibitor, full curve, poor fit]	
O=C1NC(=Nc2ccc(O)cc2)S/C1=C\C=C\c1ccco1	inconclusive: 50.1 µM [inhibitor, partial curve]	
Cc1ccc(C)c(N2N=C(C(=O)OCc3nnc(-c4cccs4)o3)CCC2=O)c1	inconclusive: 15.8 µM [inhibitor, partial curve, poor fit]	
Cc1ccc(C)c(C(=O)CN2C(=O)NC3(CCCCCCC3)C2=O)c1	inconclusive: 89.1 µM [inhibitor, partial curve, poor fit]	
COC(=O)c1c(C)[nH]c(C(=O)/C=C/c2ccc(C)cc2)c1C	inconclusive: 15.8 µM [inhibitor, partial curve, poor fit]	
CCOC(=O)C1=C(C)NC2=C(C(=O)CC(C)(C)C2)C1c1ccc(O)c(OCC)c1 (stereo not given)	inconclusive: 100 µM [inhibitor, single point]	
Cc1ccc(C(=O)COC(=O)C2CC3CCCC(C2)C3=O)cc1[N+](=O)[O-] (stereo not given)	inconclusive: 22.4 µM [inhibitor, single point]	
COc1cc(C(c2c(C)[nH][nH]c2=O)c2c(C)[nH][nH]c2=O)ccc1OC(C)C		inactive: -2.24%
CC(=O)OCC1=C(C(=O)O)N2C(=O)C(NC(=O)c3ccc(COc4ccc(Cl)cc4)o3)C2SC1 (stereo not given)	inconclusive: 10 µM [inhibitor, full curve, poor fit]	
O=C(N/N=C/c1cn(-c2ccccc2)nc1-c1cc2ccccc2o1)c1ccncc1		inactive: 7.26%
CCOc1ccc(C2/C(=C(\O)c3ccc(OC)c(OC)c3)C(=O)C(=O)N2c2cc(C)on2)cc1OC (stereo not given)	inconclusive: 3.55 µM [inhibitor, full curve, poor fit]	
CC(C)Sc1oc(-c2ccco2)nc1S(=O)(=O)c1ccc(F)cc1	inconclusive: 25.1 µM [inhibitor, full curve, poor fit]	

SMILES	Potency	activity, negative = inhibition
COC(=O)CC(=O)CSc1nc(C)cc(C)c1C#N	inconclusive: 39.8 µM [inhibitor, single point]	
O=c1cc(CSc2n[nH]c(-c3ccncc3)n2)nc2sccn12	active: 50.1 µM	
CCN(CC)C(=O)N1CCN(S(=O)(=O)c2c(C)cc(C)cc2C)CC1	inconclusive: 100 µM [inhibitor, single point]	
O=C(CN1C(=O)C2(SCC(=O)N2c2cccc(F)c2)c2ccccc21)NCc1ccccc1Cl (stereo not given)		inactive: 15%
Cc1ccc(S(=O)(=O)N2CCC(C(=O)NN3CCCCC3)CC2)cc1		inactive: 9.63%
Cc1cc(OCC(F)(F)C(F)(F)C(F)(F)C(F)(F)C(F)(F)C(F)F)nc(N)n1	inconclusive: 20 µM [inhibitor, single point]	
Cn1c(NN)nc2sc3c(c2c1=O)CCC3	inconclusive: 8.91 µM [inhibitor, partial curve, poor fit]	
CCOC(=O)c1sc2nc(C)nc(Nc3ccccc3)c2c1C	inconclusive: 28.2 µM [inhibitor, single point]	
CCOC(=O)c1cc(-c2ccccc2)n(CCCC(=O)Nc2cccc(C)c2)c1C		inactive: -16.2%
Cc1ccc(NC(=O)CSc2nc3ccccc3nc2Cc2ccccc2)c(Cl)c1		inactive: -14.5%
CCN(CC)C(=O)c1ccc(N)cc1	inconclusive: 100 µM [inhibitor, single point]	
Cc1ccc(NC(=O)c2ccco2)cc1C	inconclusive: 3.16 µM [inhibitor, single point]	
O=C(COC(=O)c1cc(-c2ccccc2Cl)nc2ccccc12)Nc1ncc(C(F)(F)F)cc1Cl	inconclusive: 79.4 µM [inhibitor, partial curve, poor fit]	
O=C(COc1ccc(Cl)cc1)Nc1ccc2nc(SCC(=O)N3CCOCC3)sc2c1		inactive: 6.72%
O=C(CSc1nnc(Nc2ccccc2F)s1)NCc1ccco1	inconclusive: 3.16 µM [inhibitor, full curve, poor fit]	
CC1CCN(S(=O)(=O)c2ccc(NC(=O)Cc3cccs3)cc2)CC1	inconclusive: 17.8 µM [inhibitor, partial curve, poor fit]	
O=C(O)C1Nc2c(Cl)cc(Cl)cc2C2C=CCC12 (stereo not given)	active: 3.98 µM	
O=C(OCC(=O)N1N=C(c2ccc(Cl)cc2)CC1c1ccco1)c1cncc(Br)c1 (stereo not given)	inconclusive: 14.1 µM [inhibitor, full curve, poor fit]	
CC1CCC(NC(=O)CCC(=O)N2CC(C)Oc3ccccc32)CC1 (stereo not given)	inconclusive: 79.4 µM [inhibitor, single point]	
C=CCn1c(SCC(=O)O)nnc1-c1cccc(Cl)c1	inconclusive: 112 µM [inhibitor, partial curve, poor fit]	
CN(C(=O)/C=C/c1ccc([N+](=O)[O-])s1)c1ccccc1	inconclusive: 39.8 µM [inhibitor, partial curve, poor fit]	
CC(=O)N1CCCc2cc(S(=O)(=O)NCc3ccccc3Cl)ccc21		inactive: 0.28%

Individual results from above.
Entry for Cc1ccc(C)c(N2N=C(C(=O)OCc3nnc(-c4cccs4)o3)CCC2=O)c1 under Potency: inconclusive: 15.8 µM [inhibitor, partial curve, poor fit]
Entry for CCN(CC)C(=O)N1CCN(S(=O)(=O)c2c(C)cc(C)cc2C)CC1 under Potency: inconclusive: 100 µM [inhibitor, single point]

Following part.

SMILES	Potency	activity, negative = inhibition
CC(=O)N(C)c1ccc(NC(=S)NC(=O)/C=C/c2ccco2)cc1		inactive: -6.39%
CC(C)C(C(=O)Nc1ccc2c(c1)OCCOCCOCCOCCO2)N1C(=O)c2ccccc2C1=O (stereo not given)		inactive: 26.1%
C#CCOCCOCCOCCNc1nc(N2CCN(C(=O)CCCCCCCCCCNC(=O)Cn3cc(CCCCCN)nn3)CC2)nc(N2CCN(C(=O)CCCCCCCCCCNC(=O)[C@H](CO)n3cc(CCCSC)nn3)CC2)n1	inconclusive: 20 µM [inhibitor, partial curve, poor fit]	
O=c1c2c3nc4ccccc4nc3n(/N=C/c3ccccn3)c2ncn1-c1ccccc1	inconclusive: 3.16 µM [inhibitor, full curve, poor fit]	
Cc1ccc2nc(-c3cccc(NC(=O)CSc4ccc(Cl)cc4)c3)oc2c1		inactive: -0.646%
CCOC(=O)C1Nc2ccc(OC(F)(F)F)cc2C2C=CCC12 (stereo not given)	inconclusive: 17.8 µM [inhibitor, partial curve, poor fit]	
CC(=O)N(c1ccc(Cl)cc1)c1c[nH]c2ccccc12	inconclusive: 1.26 µM [inhibitor, full curve, poor fit]	
CCC(CO)Oc1cc(NCc2cccc(C)c2)c2ncn(C(C)C)c2c1 (stereo not given)	inconclusive: 39.8 µM [inhibitor, single point]	
CNC(=O)c1c(C)[nH]c(=S)c(C#N)c1-c1ccco1	inconclusive: 14.1 µM [inhibitor, full curve, poor fit]	
CC(=O)Nc1ccc(S(=O)(=O)Nc2nccc(C)n2)cc1	inconclusive: 79.4 µM [inhibitor, partial curve, poor fit]	
COC(=O)c1cc2ccccc2c([N+](=O)[O-])c1O	inconclusive: 1.58 µM [inhibitor, full curve, poor fit]	
O=C(CNc1ccc2ccccc2c1)N/N=C/C=C/c1cccc([N+](=O)[O-])c1	inconclusive: 112 µM [inhibitor, single point]	
CCOC(=O)CN1C(=O)C(O)(CC(=O)c2ccccn2)c2ccccc21 (stereo not given)	inconclusive: 2 µM [inhibitor, partial curve, poor fit]	
CN(C)c1cc(N/N=C/c2ccc(Cl)cc2)nc(N(C)C)n1	inconclusive: 25.1 µM [inhibitor, single point]	
O=C(CSc1nc2ccccc2s1)N/N=C/c1ccccc1C(=O)O	inconclusive: 15.8 µM [inhibitor, partial curve, poor fit]	
COc1ccc(S(=O)(=O)NCCSCc2ccco2)cc1Cl	inconclusive: 39.8 µM [inhibitor, partial curve, poor fit]	
CCN1CCN(CCNC(=O)c2cc(Cl)c(NC(=O)C3=C(C)OCCS3)cc2OC)CC1		inactive: -2.88%
O=C(OC(C(=O)c1c[nH]c2ccccc12)c1ccccc1)c1cnccn1 (stereo not given)		inactive: 1.58%
CCOc1ccccc1NC(=O)Cn1c(=O)n(-c2ccc(C)c(C)c2)c(=O)c2oc3ccccc3c21		inactive: 12.2%
O=C(COc1ccc(Cl)cc1Cl)Nc1c(-c2cccs2)nc2ccccn12	inconclusive: 89.1 µM [inhibitor, single point]	
c1ccc(-c2nc(NCc3cccnc3)c3oc4ccccc4c3n2)cc1	inconclusive: 14.1 µM [inhibitor, partial curve, poor fit]	
